No constants are given. Whether binding was seen depends on the method and setting. Some binding calls cover weakened binding; strength is not graded here. Sequences can lack the tags named with a protein.

Protein sequences, listed by entry. Tags and fused reporters are not part of them. Residues count along the entry.
UniProt O43157, residues 20-2135: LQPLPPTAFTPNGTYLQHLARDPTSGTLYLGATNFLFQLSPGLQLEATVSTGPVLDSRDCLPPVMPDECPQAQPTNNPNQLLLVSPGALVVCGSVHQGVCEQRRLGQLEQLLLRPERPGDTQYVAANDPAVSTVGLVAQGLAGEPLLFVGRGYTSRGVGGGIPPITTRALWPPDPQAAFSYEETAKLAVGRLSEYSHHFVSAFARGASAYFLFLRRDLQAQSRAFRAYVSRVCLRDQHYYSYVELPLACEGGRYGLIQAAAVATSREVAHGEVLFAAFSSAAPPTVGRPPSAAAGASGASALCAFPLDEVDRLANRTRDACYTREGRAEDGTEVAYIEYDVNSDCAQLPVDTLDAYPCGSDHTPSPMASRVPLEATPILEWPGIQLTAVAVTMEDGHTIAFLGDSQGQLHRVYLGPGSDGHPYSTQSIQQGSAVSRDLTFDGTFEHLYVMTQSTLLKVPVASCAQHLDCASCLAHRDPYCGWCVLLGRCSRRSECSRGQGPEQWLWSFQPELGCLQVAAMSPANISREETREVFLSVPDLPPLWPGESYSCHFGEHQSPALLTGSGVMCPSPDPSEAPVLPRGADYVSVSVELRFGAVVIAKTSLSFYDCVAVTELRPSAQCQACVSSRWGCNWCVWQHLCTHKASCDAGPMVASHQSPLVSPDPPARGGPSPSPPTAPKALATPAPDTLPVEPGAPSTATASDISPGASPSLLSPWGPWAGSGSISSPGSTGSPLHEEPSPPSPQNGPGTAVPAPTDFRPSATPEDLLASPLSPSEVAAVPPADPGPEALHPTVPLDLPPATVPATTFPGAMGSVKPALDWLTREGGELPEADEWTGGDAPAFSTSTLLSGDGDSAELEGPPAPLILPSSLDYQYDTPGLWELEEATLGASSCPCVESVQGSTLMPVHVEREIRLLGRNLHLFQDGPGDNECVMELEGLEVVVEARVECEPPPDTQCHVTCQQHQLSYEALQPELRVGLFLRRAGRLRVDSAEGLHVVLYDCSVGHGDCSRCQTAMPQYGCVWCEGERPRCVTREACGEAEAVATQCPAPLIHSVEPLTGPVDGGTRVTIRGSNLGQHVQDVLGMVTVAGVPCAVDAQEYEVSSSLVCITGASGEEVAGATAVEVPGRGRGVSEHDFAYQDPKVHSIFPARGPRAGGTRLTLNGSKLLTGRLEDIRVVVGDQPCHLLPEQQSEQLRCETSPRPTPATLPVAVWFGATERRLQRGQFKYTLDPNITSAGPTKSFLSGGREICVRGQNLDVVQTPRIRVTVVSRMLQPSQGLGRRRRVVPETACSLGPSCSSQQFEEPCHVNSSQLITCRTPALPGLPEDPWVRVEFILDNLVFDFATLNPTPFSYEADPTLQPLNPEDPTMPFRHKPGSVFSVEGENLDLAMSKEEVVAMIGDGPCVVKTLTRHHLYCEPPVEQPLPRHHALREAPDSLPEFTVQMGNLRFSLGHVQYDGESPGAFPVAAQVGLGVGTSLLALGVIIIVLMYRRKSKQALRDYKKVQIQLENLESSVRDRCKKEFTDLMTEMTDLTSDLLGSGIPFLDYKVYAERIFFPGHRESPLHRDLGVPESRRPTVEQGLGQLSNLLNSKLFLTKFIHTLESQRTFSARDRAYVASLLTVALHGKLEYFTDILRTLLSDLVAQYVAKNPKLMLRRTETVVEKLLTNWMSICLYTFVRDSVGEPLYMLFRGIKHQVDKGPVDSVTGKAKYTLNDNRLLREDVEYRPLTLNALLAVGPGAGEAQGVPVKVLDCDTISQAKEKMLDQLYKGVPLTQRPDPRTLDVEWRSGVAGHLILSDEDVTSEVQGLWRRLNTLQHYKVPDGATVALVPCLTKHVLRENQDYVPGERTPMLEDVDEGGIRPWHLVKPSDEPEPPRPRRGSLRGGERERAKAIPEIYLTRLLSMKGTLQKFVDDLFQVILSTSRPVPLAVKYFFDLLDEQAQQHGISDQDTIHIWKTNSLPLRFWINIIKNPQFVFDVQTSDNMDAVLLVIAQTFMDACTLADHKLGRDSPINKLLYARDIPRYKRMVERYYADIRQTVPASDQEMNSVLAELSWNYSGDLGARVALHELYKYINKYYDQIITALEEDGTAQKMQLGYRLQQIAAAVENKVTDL

In patent publication US20080219971A1 one finds binding data, which are given here for one molecule.

For the assay, the target named is Plexin B1 (UniProt O43157). Description: flow cytometry on 293/Plexin B1 cells; bound His-tagged murine CD100 detected with rabbit anti-His and streptavidin-APC, FL4-H. A general note: Flow cytometry measures light scatter and fluorescence of single cells or particles in a stream.

B1: mouse CD100-His (ligand)
chain: FAPVPRLTWEHGEVGLVQFHKPGIFNYSALLMSEDKDTLYVGAREAVFAVNALNISEKQHEVYWKVSEDKKSKCAEKGKSKQTECLNYIRVLQPLSSTSLYVCGTNAFQPTCDHLNLTSFKFLGKSEDGKGRCPFDPAHSYTSVMVGGELYSGTSYNFLGSEPIISRNSSHSPLRTEYAIPWLNEPSFVFADVIQKSPDGPEGEDDKVYFFFTEVSVEYEFVFKLMIPRVARVCKGDQGGLRTLQKKWTSFLKARLICSKPDSGLVFNILQDVFVLRAPGLKEPVFYAVFTPQLNNVGLSAVCAYTLATVEAVFSRGKYMQSATVEQSHTKWVRYNGPVPTPRPGACIDSEARAANYTSSLNLPDKTLQFVKDHPLMDDSVTPIDNRPKLIKKDVNYTQIVVDRTQALDGTFYDVMFISTDRGALHKAVILTKEVHVIEETQLFRDSEPVLTLLLSSKKGRKFVYAGSNSGVVQAPLAFCEKHGSCEDCVLARDPYCAWSPAIKACVTLHQEEASSRGWIQDMSGDTSSCLDKSKESFNQHFFKHGGTAELKCFQKSNLARVVWKFQNGELKAASPKYGFVGRKHLLIFNLSDGDSGVYQCLSEERVRNKTVSQLLAKHVLEVKMVPRTPPSPTSEDAQTEGSKITSKMPVASTQGSSPPTPALWATSPRAATLPPKSSSGTSCEPKMVINTVPQLHSEKTVYLKSSDNRHHHHHH
With B1, the binding entry is given as “binds”.
